# Values from PubChem BioAssay AID504793 (Drosophila RNAi Screening Center, 2011).
# Aim: 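Whole-genome screen for parts of the DNA damage checkpoint at G2/M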 (primary screen)
# Cell system: Drosophila S2R+ cells
# Reagents: long dsRNA against Drosophila genes, about 0.25 µg dsRNA per well
# Time to read-out: 4 days of dsRNA, then 4 hours of drug before read-out
# Treatment: doxorubicin 0.5 µM for 4 hours to cause double-strand breaks, in cells also given a low, harmless dose of dsRNA against nbs to sensitise the assay
# Read-out: 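Per-well count of mitotic cells stained for phospho-histone H3 after doxorubicin exposure, used as mitotic index; counts are raw and not normalised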
# Direction: mitotic cells: higher = more cells in mitosis, weaker G2 arrest
# Hit rule: 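a call needs confirmation in secondary tests, with other dsRNAs and a check of mitotic timing without damage, not just a high primary count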
# Meaning of the calls: active = confirmed in follow-up tests; inactive = not confirmed
# The screen tested about 23,000 reagents; below is a random part of those that have a named target and a result. Of all reagents, 62 (0.27%) got an active call. 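Calls come from follow-up tests whose scores are not deposited, so confirmed genes may have low counts here; counts are not normalised per plate.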 Raw values vary from plate to plate and are shown uncorrected. The numbers tell different reagents against one gene apart. Names joined by + are all predicted targets of the reagent.
gene,dsRNA no.,"mitotic cells, replicate 1",outcome
HERC2,1,4,inactive
CaMKII,1,4,inactive
lbm,1,1,inactive
Syt4,1,1,inactive
betaCOP,1,18,inactive
betaCOP,2,11,inactive
Nt5b,1,12,inactive
Nt5b,2,5,inactive
Nt5b,3,10,inactive
Nt5b,4,10,inactive
Nt5b,5,4,inactive
tsu,1,5,inactive
Sbat,1,4,inactive
14-3-3epsilon,1,135,active
alphaKap4,1,6,inactive
Oseg5,1,6,inactive
CG12869,1,6,inactive
CG9344,1,3,inactive
Rtel1,1,9,inactive
Rtel1,2,5,inactive
CG5326,1,17,inactive
CG5326,2,2,inactive
CG5326,3,1,inactive
Smug,1,5,inactive
CG31091,1,7,inactive
CG31446,1,10,inactive
CG8141,1,6,inactive
CG40191,1,8,inactive
su(sable),1,6,inactive
Cpr49Aa,1,3,inactive
CG14860,1,14,inactive
CG14860,2,7,inactive
CG11566 (retired record) + stg1,1,2,inactive
CG11566 (retired record) + stg1,2,10,inactive
CG11566 (retired record) + stg1,3,7,inactive
CG11566 (retired record) + stg1,4,9,inactive
l(2)gd1,1,3,inactive
l(2)gd1,2,11,inactive
CG13326,1,5,inactive
Nadk2,1,8,inactive
spirit,1,15,inactive
spirit,2,2,inactive
Jheh2,1,1,inactive
Jheh2,2,6,inactive
Tace,1,14,inactive
GV1,1,5,inactive
GV1,2,8,inactive
Oatp74D,1,4,inactive
Oatp74D,2,6,inactive
CG7196 (retired record),1,6,inactive
CG7196 (retired record),2,5,inactive
Ent3,1,7,inactive
Ent3,2,6,inactive
DIP-alpha,1,7,inactive
DIP-alpha,2,2,inactive
Lon,1,11,inactive
Lon,2,5,inactive
Fas3,1,6,inactive
Fas3,2,11,inactive
Fas3,3,,inactive
CG32572,1,13,inactive
CG32572,2,6,inactive
CG32572,3,,inactive
Snx21,1,4,inactive
Snx21,2,5,inactive
Taf5,1,6,inactive
Taf5,2,5,inactive
Iru,1,8,inactive
Or22b,1,3,inactive
CG16719,1,4,inactive
Alp11,1,14,inactive
CG5568,1,13,inactive
CG5568,2,10,inactive
CG5568,3,9,inactive
CG10365,1,12,inactive
Rcd-1,1,17,inactive
Eip75B,1,11,inactive
Eip75B,2,15,inactive
Surf1,1,2,inactive
Surf1,2,3,inactive
Hk,1,5,inactive
Hk,2,8,inactive
Hk,3,3,inactive
CG13117,1,1,inactive
CG13117,2,5,inactive
Nepl4,1,4,inactive
CG15099,1,7,inactive
nompA,1,9,inactive
CG4666,1,13,inactive
Npc1a,1,6,inactive
CG1213,1,6,inactive
fok,1,9,inactive
fok,2,6,inactive
tty,1,6,inactive
tty,2,9,inactive
ogre,1,4,inactive
ogre,2,8,inactive
CG4210,1,10,inactive
CG4210,2,5,inactive
CG13545,1,6,inactive
CG13545,2,2,inactive
CG13114,1,1,inactive
CG15337,1,10,inactive
CG15337,2,11,inactive
CG34227,1,9,inactive
CG34227,2,6,inactive
cl,1,5,inactive
CG10898,1,3,inactive
et,1,6,inactive
Pal1,1,10,inactive
Gyc76C + CG42637,1,7,inactive
EndoB,1,4,inactive
CG14659,1,1,inactive
CG15498,1,10,inactive
CG34214,1,2,inactive
Cdc5,1,2,inactive
CG32371,1,9,inactive
CG32371,2,8,inactive
Nubpl,1,6,inactive
CG31139,1,22,inactive
CG15263,1,8,inactive
CG15263,2,8,inactive
cg,1,7,inactive
cg,2,3,inactive
Obp85a,1,7,inactive
CG6330,1,4,inactive
ND-B17,1,6,inactive
coro,1,3,inactive
coro,2,16,inactive
sog,1,12,inactive
CG12898,1,12,inactive
MED31,1,22,inactive
CG13607,1,14,inactive
Dhc36C,1,5,inactive
BEAF-32 + CG42254 (retired record),1,7,inactive
FucT6,1,6,inactive
FucT6,2,7,inactive
CG13021,1,7,inactive
CG31548,1,4,inactive
CG31548,2,3,inactive

A portion from the list above:
gene,dsRNA no.,"mitotic cells, replicate 1",outcome
Cdc5,1,2,inactive
CG32371,1,9,inactive
CG32371,2,8,inactive
Nubpl,1,6,inactive
CG31139,1,22,inactive
CG15263,1,8,inactive
CG15263,2,8,inactive
cg,1,7,inactive
cg,2,3,inactive
Obp85a,1,7,inactive
CG6330,1,4,inactive
ND-B17,1,6,inactive
coro,1,3,inactive
coro,2,16,inactive
